{"sequences": {"note": "Protein sequences, listed by entry. Tags and fused reporters are not part of them.", "UniProt Q9NRC8": "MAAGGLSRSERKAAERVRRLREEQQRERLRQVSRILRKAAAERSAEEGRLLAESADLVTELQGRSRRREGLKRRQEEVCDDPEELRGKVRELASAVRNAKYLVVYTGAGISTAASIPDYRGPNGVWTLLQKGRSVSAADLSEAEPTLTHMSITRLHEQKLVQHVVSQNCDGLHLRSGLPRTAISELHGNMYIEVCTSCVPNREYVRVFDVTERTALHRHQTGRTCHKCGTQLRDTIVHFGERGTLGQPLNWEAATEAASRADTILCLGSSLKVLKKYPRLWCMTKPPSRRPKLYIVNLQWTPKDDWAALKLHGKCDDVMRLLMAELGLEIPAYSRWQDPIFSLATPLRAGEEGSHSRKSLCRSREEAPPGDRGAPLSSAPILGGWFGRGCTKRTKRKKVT"}, "source": "paper PMC11256434", "target": "T1, Forkhead Box M1 (human (endogenous in HEK-293T)) (UniProt Q08050)", "T1 sequence": "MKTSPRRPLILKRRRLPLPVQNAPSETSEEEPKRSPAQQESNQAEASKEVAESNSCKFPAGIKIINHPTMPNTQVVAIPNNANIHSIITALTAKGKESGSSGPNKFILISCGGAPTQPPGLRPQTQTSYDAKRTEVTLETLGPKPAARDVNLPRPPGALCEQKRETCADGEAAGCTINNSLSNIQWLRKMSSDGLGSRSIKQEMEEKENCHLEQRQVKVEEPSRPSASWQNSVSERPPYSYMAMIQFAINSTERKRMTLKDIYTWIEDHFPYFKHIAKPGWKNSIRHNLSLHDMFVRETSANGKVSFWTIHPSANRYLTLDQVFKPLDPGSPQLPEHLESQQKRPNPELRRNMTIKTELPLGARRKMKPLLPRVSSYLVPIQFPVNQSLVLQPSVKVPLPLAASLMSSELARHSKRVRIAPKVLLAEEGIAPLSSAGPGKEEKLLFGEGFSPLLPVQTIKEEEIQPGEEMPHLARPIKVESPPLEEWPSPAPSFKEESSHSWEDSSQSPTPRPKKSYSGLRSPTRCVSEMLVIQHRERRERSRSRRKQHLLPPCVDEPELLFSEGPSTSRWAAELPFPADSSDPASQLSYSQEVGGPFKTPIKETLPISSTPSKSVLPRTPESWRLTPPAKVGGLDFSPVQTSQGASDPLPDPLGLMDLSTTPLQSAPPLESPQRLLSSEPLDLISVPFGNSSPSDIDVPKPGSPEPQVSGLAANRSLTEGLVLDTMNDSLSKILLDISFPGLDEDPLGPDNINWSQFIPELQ", "assay": "co-IP; HEK-293T cells lysed in RIPA buffer with protease inhibitors; FOXM1, SIRT7 or IgG antibody overnight at 4 °C, protein A agarose beads, western blot", "note": "These are yes or no findings as the source states them, for the method shown. Binding seen in cells or lysates may run through a third protein. Some entries that bind do so weakly or less than the wild type.", "data": [{"substance": "sirtuin 7 (from UniProt Q9NRC8 1-400) (enzyme)", "values": [{"measurement": "binding", "value": "binds"}]}]}
